Results are given in words; binding and its absence hold for the method and conditions named. Binding seen in cells or lysates may run through a third protein. Some binding calls cover weakened binding; strength is not graded here. For some assays here: Where a sequence is shown, tags or fusion partners need not be part of it.

By UniProt entry, the sequences of proteins in these tests, tags left out.
UniProt Q96GD4: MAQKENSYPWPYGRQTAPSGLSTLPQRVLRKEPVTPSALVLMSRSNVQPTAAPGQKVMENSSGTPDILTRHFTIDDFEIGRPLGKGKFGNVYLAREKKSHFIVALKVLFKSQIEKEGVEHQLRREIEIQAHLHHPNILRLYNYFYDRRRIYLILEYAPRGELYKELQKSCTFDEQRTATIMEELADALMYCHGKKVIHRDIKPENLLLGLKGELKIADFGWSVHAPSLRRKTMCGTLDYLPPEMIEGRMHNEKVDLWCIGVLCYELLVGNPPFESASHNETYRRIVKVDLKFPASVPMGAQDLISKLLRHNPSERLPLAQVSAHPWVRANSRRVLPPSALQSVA
UniProt P25490: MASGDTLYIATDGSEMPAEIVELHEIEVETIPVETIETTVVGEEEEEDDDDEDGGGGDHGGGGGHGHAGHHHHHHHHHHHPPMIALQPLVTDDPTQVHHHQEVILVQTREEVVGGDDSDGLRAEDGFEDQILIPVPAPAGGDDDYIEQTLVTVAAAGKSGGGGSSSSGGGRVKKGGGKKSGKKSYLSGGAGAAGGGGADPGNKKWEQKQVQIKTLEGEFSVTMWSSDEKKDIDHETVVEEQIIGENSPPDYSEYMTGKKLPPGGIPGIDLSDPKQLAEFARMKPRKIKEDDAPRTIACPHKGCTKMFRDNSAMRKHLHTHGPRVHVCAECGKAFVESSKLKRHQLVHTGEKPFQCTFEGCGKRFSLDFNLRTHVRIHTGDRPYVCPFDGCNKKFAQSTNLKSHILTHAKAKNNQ

For one test, the target named is T1, HA-Aurora A (UniProt O14965).
T1 sequence: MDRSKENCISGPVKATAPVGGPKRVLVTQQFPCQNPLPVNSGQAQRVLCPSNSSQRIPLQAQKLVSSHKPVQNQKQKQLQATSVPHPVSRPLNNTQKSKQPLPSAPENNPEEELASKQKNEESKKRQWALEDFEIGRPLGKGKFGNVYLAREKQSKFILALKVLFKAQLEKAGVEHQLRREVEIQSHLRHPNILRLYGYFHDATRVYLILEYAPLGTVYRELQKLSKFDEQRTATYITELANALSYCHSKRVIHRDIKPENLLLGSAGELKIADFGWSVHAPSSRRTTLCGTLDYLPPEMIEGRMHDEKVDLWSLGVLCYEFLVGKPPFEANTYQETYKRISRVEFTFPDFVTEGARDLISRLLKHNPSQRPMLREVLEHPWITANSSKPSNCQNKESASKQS
As to the kind of experiment: co-IP; HEK293 cells transiently transfected with Flag-Aurora B or HA-Aurora A, nocodazole block; Aurora B precipitated with anti-Flag mouse MAb cross-linked to resin beads, Aurora A with anti-HA antibody; blot probed with anti-YY1; non-transfected cells as control.

The target of a further test is Flag-Aurora B (UniProt Q96GD4). The test is described as above.

In the case of “Yin Yang 1 (YY1), endogenous (from UniProt P25490 1-414)”, the binding entry with HA-Aurora A and with Flag-Aurora B was “binds” in each case.

Values taken from paper PMC3511337.
